The values that follow are results of earlier work, collected in publication PMC11944986, “Parenteral Nanoemulsion for Optimized Delivery of GL-II-73 to the Brain—Comparative In Vitro Blood–Brain Barrier and In Vivo Neuropharmacokinetic Evaluation” (Pharmaceutics, 2025).

This data set deals with in vitro model of the blood-brain barrier. Particulars: cited from earlier work.

On to `CN1C(=O)CN=C(c2ccccc2)c2cc(Cl)ccc21` [diazepam], for which the Pe value was 70 ×10⁻⁶ cm/s.
